Assay: Membrane permeability in Caco-2 model
Assay type: in vitro ADME
Conditions: human, Caco-2, pH 7.4
Description: Caco-2 cells were purchased from the American Model Tissue Cell Collection (Rockville, MD). The cell culture medium was modified Eagle's medium (MEM) containing 10% inactivated fetal bovine serum and 1% non-essential amino acids. […] The cells were incubated for 21-28 days after inoculation for transport experiments and the apparent permeability (Papp) of Lucifer Yellow was used to characterize and verify the compactness of the cell monolayer. […] After the incubation, dilute the samples on the apical side and basolateral side, and the concentrations of compounds on the apical and basolateral sides were detected by LC-MS/MS, and the concentrations of the compounds were quantified by standard curve.

## CC(C)NCC(O)COc1ccc(CC(N)=O)cc1 (stereo not drawn) [Atenolol]
Caco2, 10 μM, 90 min
  Papp A→B at 90 min, 10 µM: 0.43 ×10⁻⁶ cm/s
  Papp B→A at 90 min, 10 µM: 0.18 ×10⁻⁶ cm/s
Caco2, read-out: Efflux Ration
  efflux ratio at 90 min, 10 µM: 0.42

Source: patent US20250304587A1, “WEE1 INHIBITOR, PREPARATION THEREFOR AND USE THEREOF” (JIANGSU TASLY DIYI PHARMACEUTICAL CO., LTD., priority 2022, published 2025)
